Experiment [1] concerns the target GFP‐tagged ISX AC1 mutant (position 38) (human) (UniProt Q2M1V0). Description: co-IP; A549 cells transfected with GFP-tagged WT or mutant (AC1-AC3) ISX; anti-GFP immunoprecipitates blotted for endogenous PCAF and BRD4.
For experiment [2], the target named is GFP‐tagged ISX AC2 mutant (position 72) (human) (UniProt Q2M1V0). Described as above.

Amino acid sequences for entries named in this document (tags omitted). A change or cut given only in a name is not applied to a line headed by its entry.
UniProt Q2M1V0: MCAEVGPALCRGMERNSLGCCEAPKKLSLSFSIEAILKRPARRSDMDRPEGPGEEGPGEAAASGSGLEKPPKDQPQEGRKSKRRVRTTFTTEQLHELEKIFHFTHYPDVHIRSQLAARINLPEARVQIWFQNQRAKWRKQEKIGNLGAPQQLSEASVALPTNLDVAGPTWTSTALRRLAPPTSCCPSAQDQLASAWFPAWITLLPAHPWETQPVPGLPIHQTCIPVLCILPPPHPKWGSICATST
UniProt Q92831: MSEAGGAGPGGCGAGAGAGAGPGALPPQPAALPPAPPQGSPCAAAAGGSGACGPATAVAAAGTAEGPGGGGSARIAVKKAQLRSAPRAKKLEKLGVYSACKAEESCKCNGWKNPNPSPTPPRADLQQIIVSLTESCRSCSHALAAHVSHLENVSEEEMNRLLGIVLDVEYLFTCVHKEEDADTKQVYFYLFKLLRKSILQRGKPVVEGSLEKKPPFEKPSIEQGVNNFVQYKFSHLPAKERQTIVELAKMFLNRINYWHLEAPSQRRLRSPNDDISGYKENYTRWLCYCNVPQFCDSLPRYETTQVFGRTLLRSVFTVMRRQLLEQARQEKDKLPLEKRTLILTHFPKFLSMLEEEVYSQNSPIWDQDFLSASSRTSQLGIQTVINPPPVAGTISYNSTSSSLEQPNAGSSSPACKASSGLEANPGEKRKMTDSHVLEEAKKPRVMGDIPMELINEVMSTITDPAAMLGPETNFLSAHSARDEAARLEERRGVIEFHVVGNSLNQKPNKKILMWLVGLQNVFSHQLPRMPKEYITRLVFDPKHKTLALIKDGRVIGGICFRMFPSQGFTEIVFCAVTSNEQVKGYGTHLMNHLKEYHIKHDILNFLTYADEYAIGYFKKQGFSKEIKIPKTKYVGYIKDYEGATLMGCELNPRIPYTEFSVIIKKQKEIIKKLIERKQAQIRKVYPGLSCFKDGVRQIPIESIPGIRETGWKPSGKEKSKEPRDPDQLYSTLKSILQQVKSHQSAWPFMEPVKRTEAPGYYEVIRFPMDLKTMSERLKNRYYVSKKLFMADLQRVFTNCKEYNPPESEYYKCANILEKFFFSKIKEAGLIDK

Results are given in words; binding and its absence hold for the method and conditions named. Binding seen in cells or lysates may run through a third protein. Binding can be weak; no strength is given.

In the case of “p300/CBP‐associated factor (PCAF) (from UniProt Q92831 1-832) (enzyme)”, the binding entry in experiment [1] and in experiment [2] was “binds” throughout.

Values taken from article PMC7001155.
